This note sets out measurements from paper PMC12370185.

The list shows a part of the results.

Some test systems named below: KLF4 + histone octamer; OCT4 + histone octamer; SOX2 + histone octamer.
Assay in all cases: EMSA with sequencing
Details in all cases: 10 mM Tris-Cl pH 7.5, 50 mM NaCl, 1 mM DTT, 0.25 mg/ml BSA, 2 mM MgCl2, 0.025% Nonidet P-40, 5% glycerol; 28 nM nucleosome library; 10 min on ice then 30 min …; high values mean tight binding; double strand, one strand shown
On the technique in general: In EMSA bound probe runs differently from free probe, usually more slowly.

Assay [1] concerns c-MYC + MAX + histone octamer.

“GATGGACCCTATACGCGGCAAAGCATGATTCTCGCCATCTACACGACGCTCTTCCGATCTAATTTATGTTTGTTAGCGTTATACTATTCTAATTCTTTGTTTCGGTGGTATTGTTTATTTTGTTCCTTTGTGCGTTCAGCTTAATGCCTAACGACACTCGGAGATCGGAAGAGCACACGTGATGAGGTTATTGAACAGCGACTTTACCGGTGCCAGTCGGATAGTGTTCC”: the binding signal (log2 relative supershift) in the assay with KLF4 + histone octamer is 0.4; with OCT4 + histone octamer it was 0.282; in the assay with SOX2 + histone octamer it was 0.628; in assay [1], 1.04.
As for “GATGGACCCTATACGCGGCCCCTGCCCATCCCTAACCTCTGGCAACCACTCATCTGTCTATTCCCCCATTGTTAGGATTTTGTCAATTCAAGAATGTTATGTAAATGGAGCCACCCAGTATGCACCCTTTTTGCATTGACTTTATCCCCTCAGCATGATTCTCTGGAGGTGCATCCGCATTGTGGTGCTGATAGTGACTACTGAGTAGTATGCCAGTCGGATAGTGTTCC”, the binding signal (log2 relative supershift) in the assay with KLF4 + histone octamer came to 2.27; in the assay on OCT4 + histone octamer, 0.352; with SOX2 + histone octamer it was 1.4; in assay [1], 0.995.
The corresponding values for “GATGGACCCTATACGCGGCCCCCTTTCCTGAGAATAGTTTATTACCATGTCCTATTGGTTCTGCCTATCAATGATGTCTCTTGAATCTTTACCCCATCTCTACTACCACCGTGCTAGTCCAAGCCACCATCACTTTCTGCTTGGGATAGCGTGATTGTGAACTGGTCCATACTTGTCTACTCTAGCCTACAGTTCTAATCTCCTCCCTTCTGCCAGTCGGATAGTGTTCC” are 2.22, 0.0263, 0.256 and 0.143.
In the same order, the values of “GATGGACCCTATACGCGGCTCTCCTTCTCCCTGTGAACATGGCTTCTGGTGGTGAGAGCCAGTTTGCATTCATTCTTTGATGTGAATGCTCTGATTCAGTAGCTCTCAACTTGTTTTCTGCTACAACACAGATGGCTTTCACATGCCTCACACCCTCACAGGGGGGTATCCAGGGTTATGCAAAATTGAAGCAAGCTACTTGTAATTCCATGCCAGTCGGATAGTGTTCC” are 1.28, 0.846, 0.331 and 0.236.
As to “GATGGACCCTATACGCGGCAGAAAGAGGCATATGACTGTTTAGACATTTGAGCTGCATGCAAGGGAAGGGGTGGGTTACTCTGCTATAGAAATGTTCCCTATTTGAATAATAAGACACAACAGGGGGTGGATTATGCAAATTGGCCCCATGCCTTCTGCAACCCCAAAGGATGTAGTTAGTACCCAGAAACCAGTGACAAGAACAATGCCTGCCAGTCGGATAGTGTTCC”, the binding signal (log2 relative supershift) in the assay on KLF4 + histone octamer is 1.39; with OCT4 + histone octamer, 0.347; in the assay on SOX2 + histone octamer it was 2.13; in assay [1], 0.493.
In the same order, the values of “GATGGACCCTATACGCGGCTCTACTCCCCTGGCACATAGACAGGGTTCAGTAACTGCATGTTAAATCAGCGGTGATGATGATGATGGTGACAATGACAGTTGCAGCAGCTATCCAGCACATGGCCCTTGCCATGGGTGTGGCCACAGTGCTAAGAATCTTCATTTAACTCTTTTAACCCTCACGGAAATCCTCGCAGGTGTGTCCTGTTGTGCCAGTCGGATAGTGTTCC” are 2.53, 0.332, 0.436 and 0.408.
In the same order, the values of “GATGGACCCTATACGCGGCTCTTTCCTTCCCCGTCTCTTTCCCCAGGTGTTAGCCCAGTATCCCAGTCTGAAGACGTCCGCCCTTTATCTTTCACAGGGATTCCCTTGATAAATCCCCTGCAAGTCTGAGCCTGTCCTGGCATCTGCTTCCCAGAGGATCCAAATTAACACAGATAACTTCCATTTTGTAGGATGAGATAATGAAGTCTATGCCAGTCGGATAGTGTTCC” are 1.36, 0.411, 1.13 and 0.164.
In the same order, the values of “GATGGACCCTATACGCGGCTTCACTTCGTGTGTTAAAGTAATTCCAGAGAGAAAGGGACTAGACTAGGGAGACACCCAGCCCAGGCAGTGACTTGCAAATAATGGAAGTATGGCCACATCAGCCCCTAATTTACCTTTGATTGTCTCCCTATTTCTGACTCTCTCTCTTACCCACTTGATATATACAACCGTGTTTCTTTCCAATCCTGATGCCAGTCGGATAGTGTTCC” are 0.655, 0.07, 0.409 and 0.155.
For “GATGGACCCTATACGCGGCGTGTGTGTGTTAGGGGTTAGTGAGTGTGCTGGGCAGGTGGGGTGGTGCTTGAGGTTCTCCCTGCCGAGTGTGCACATGGCTGGGCGTGTGTGTGTGTGTGCGTGTGTGTGTGGTGGGAATGACAGTGGATCTGCCTCCAAGTGTGCCCACACAAGTGCCGGGGCTGTGCAGTCCATGCCTGTGTGAGGTGCTGCCAGTCGGATAGTGTTCC”, the binding signal (log2 relative supershift) is 1.43 with KLF4 + histone octamer, 0.58 in the assay with OCT4 + histone octamer, 0.608 in the assay with SOX2 + histone octamer and 1.49 in assay [1].
The corresponding values for “GATGGACCCTATACGCGGCCCATTTATTAATGTTTAAAAACATGCAAAACAATATGCATATATACAGACTGTGTATTAACAATGTTTAAAAATGCATGGGCATGTTAAACACCCGGGGAGTGGCTGGGGAGAGAAGGAGGGAAAAGGGATTGGAGTTGGGAGGGGTGGTACACGGTGGGTGTCAACTGTAACAAACTACTACAAAAAGAGTGCCAGTCGGATAGTGTTCC” are 2.26, 1.31, 1.36 and 0.191.
On to “GATGGACCCTATACGCGGCCTGCACCTTTGCCAAAAATAGCCCATCTCCATGGCTGGTGGCCAGAGTGGAGCAGGCCCAACACTGAAACTCTTTTCAGACAAGTTGAGGCTGGTTTCCTGAACATAACCCGAAAGCAAATGTGGCTTGCCTTGGAGGTACAGATAAGCATATGCATAACAGATTTTATTACCTATGAGAAAGTACACACCTGCCAGTCGGATAGTGTTCC”, for which the binding signal (log2 relative supershift) in the assay on KLF4 + histone octamer amounted to 2.18; with OCT4 + histone octamer, 1.02; in the assay with SOX2 + histone octamer it was 0.378; in assay [1], 0.719.
